Laboratory results published in PMC4402546.
No constants are given. Whether binding was seen depends on the method and setting.

Target: T1, ORRM2 (organelle RRM protein 2), mature coding sequence (Arabidopsis) (UniProt Q9FIU6)
T1 sequence: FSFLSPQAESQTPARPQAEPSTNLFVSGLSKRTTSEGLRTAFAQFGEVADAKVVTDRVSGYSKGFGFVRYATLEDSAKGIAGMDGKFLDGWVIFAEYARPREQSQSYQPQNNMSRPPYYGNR
Test: two-hybrid; yeast strain PJ69-4 a and alpha, double transformants by mating; spotted at 1 x 10^6 and 1 x 10^5 cells/ml on media without leucine, tryptophan, adenine and histidine; empty vectors as control for auto-activation; read 2 d to 10 d after spotting

binding: no binding
Substance: MEF1
